Assay results reported in PubChem BioAssay AID651640 (Broad Institute, 2012).
“And” between values parts separate entries of the source, which are not always exact repeats. Identical values can stand only once. Screen size: about 350,000 compounds; about 6,000 (1.7%) were called active. The inconclusive results got no clear call from the source; some entries with a clear call stand among them for comparison. Cut-off read from the data, not from the text of the source: active = CPE inhibition above about 20% (passing the limit was not always enough); inconclusive = no clear call, values can overlap the other calls; tested in BHK-21 cells. Some structures have more than one record in an assay (separate samples or runs), and their calls can disagree.

assay: protection of cells from dengue 2 killing – plate reader, single concentration, primary screen (AID 651640); conditions: DENV2-infected cells, cytopathic effect rescue, at 9.99 µM, stronger effect = higher value;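 note: 0% = median of neutral control wells and 100% = median of positive control wells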

SMILES	CPE inhibition
COc1cc(C(CC(=O)N2CCCC2)c2c(OC)cc(OC)c3c(-c4ccccc4)cc(=O)oc23)cc(OC)c1OC (configuration not stated)	inconclusive: 26.6%
COc1ccc(S(=O)(=O)N(C)C[C@H]2Oc3c(NC(=O)c4ccc(-c5nccs5)cc4)cccc3C(=O)N([C@@H](C)CO)C[C@@H]2C)cc1	inactive: 1.82%
C[C@@H]1CN([C@@H](C)CO)C(=O)c2cc(Br)cnc2O[C@H]1CN(C)Cc1ccccn1	inactive: 0.118%
CCCCn1c(N)c(N(CCOC)C(=O)c2cc(=O)[nH]c3ccccc23)c(=O)[nH]c1=O	active: 73.3%
C[C@@H]1CCCCO[C@@H](CN(C)C(=O)Nc2ccc(F)cc2)[C@H](C)CN([C@H](C)CO)C(=O)c2cc(NC(=O)c3ccncc3)ccc2O1	active: 26.8%
C[C@H](CO)N1C[C@H](C)[C@@H](CN(C)S(=O)(=O)c2cccc(F)c2)OCc2cn(nn2)CCCC1=O	active: 55.3% and inactive: -8.05%
C[C@H]1CN([C@@H](C)CO)C(=O)Cc2cc(NC(=O)Nc3ccc(C(F)(F)F)cc3)ccc2O[C@@H]1CN(C)S(=O)(=O)c1cn(C)cn1	inactive: 0.115%
COc1ccc(-c2csc(NC(=O)C3CSC4(C)CCC(=O)N34)n2)c(OC)c1 (configuration not stated)	inconclusive: 34.6%
Cc1ccc(S(=O)(=O)N(C)C[C@@H]2OCCCC[C@@H](C)Oc3ccc(NS(=O)(=O)c4cn(C)cn4)cc3C(=O)N([C@H](C)CO)C[C@H]2C)cc1	inactive: 2.83%
C[C@H]1CN([C@@H](C)CO)C(=O)c2cc(C#CC3CCCCC3)cnc2O[C@H]1CN(C)S(=O)(=O)c1ccc(F)cc1	active: 71.6%
COc1ccc(S(=O)(=O)N2C[C@H](O)COC[C@H]3O[C@H](CC(=O)N(C)C)CC[C@@H]32)cc1	inactive: 2.06%
NC(=O)c1ccc(NC(=O)COc2cccc3c2CCNC3=O)cc1	inconclusive: 24.8%
CSCC(=O)N1CCC(n2nccc2NC(=O)CCCc2ccccc2)CC1	inconclusive: 32%
C[C@@H]1CCCCO[C@H](CN(C)C(=O)Nc2ccc(C(F)(F)F)cc2)[C@H](C)CN([C@@H](C)CO)C(=O)c2cc(NS(=O)(=O)c3cccs3)ccc2O1	active: 37.3%
CO[C@H]1CN(C)C(=O)c2cc(NC(=O)c3ccc4c(c3)OCO4)ccc2OC[C@H](C)N(CCC(F)(F)F)C[C@@H]1C	active: 22.6%
O=C(CCN1CCCCC1)NCC[C@@H]1CC[C@@H](NS(=O)(=O)c2cccc(F)c2)[C@@H](CO)O1	inactive: -1.57%
CC(C)=NOC(=O)c1c(C)noc1-c1snnc1C	inconclusive: 42.9%
